Assay results reported in PubChem BioAssay AID493014 (National Center for Advancing Translational Sciences (NCATS), 2011).
Out of some 340,000 compounds screened, about 170 (0.05%) were called active. This list was built around the results that the source calls inconclusive (neither active nor inactive); the mix of calls is not that of the screen. Calls come from the whole dose curve; as a rule, active = well fitted inhibition curve with a large enough effect in the signal ratio, with a control signal flat (not every such curve was filed as active); inconclusive = small, poorly fitted or top-dose-only effect, or effect the other way, or a change in a side signal; inactive = flat fitted curve, though single readings scatter; the % refers to the signal ratio. Potencies of inconclusive entries are doubtful fits and often do not repeat.

Assay: qHTS Assay to Find Inhibitors of Chronic Active B-Cell Receptor Signaling;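 for activity change, negative = inhibition: plate controls were basal doxycycline-induced cells for no effect and cells given 10 µM MG132 for full effect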
Conditions: ABC-DLBCL IkBa-CBG/CBR reporter, luminescence ratio (green luciferase fused to IkBa over red control in TMD8 lymphoma cells), 4 h; activity change, negative = inhibition: at 46.1 µM (top of the series)
In short: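 TMD8 ABC-DLBCL cells carrying doxycycline-inducible green luciferase fused to IkappaBalpha plus unfused red luciferase were exposed to compounds (up to 46 uM) for 4 hrs at 37C. Activity came from the overlap-corrected green/red luminescence ratio.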
Potency is the fitted concentration of half-maximal effect.

SMILES	activity change, negative = inhibition	Potency
CCOC(=O)c1c(CN2CCN(c3ccccc3)CC2)oc2ccc(O)cc12	inactive: -13.1%	–
Cc1c(NC(=O)COC(=O)Cc2ccc(Cl)cc2)c(=O)n(-c2ccccc2)n1C	inconclusive: -0.908%	–
CCN1C(=O)c2cccc3c(NC(=O)C(C)(C)C)ccc1c23	inconclusive: -27.4%	–
Cc1ccc(C(C)C)c(OCCCNCc2cccnc2)c1	inactive: -2.97%	–
Cc1nnc(Sc2nc3c(c(=O)[nH]c(=O)n3C)n2CCCc2ccccc2)s1	–	inconclusive: 14.6 µM [falling, partial curve]
COc1ccc(/C=N/NC(=O)c2nn(-c3ccc(C)c(C)c3)c(=O)c3ccccc23)cc1	inconclusive: 9.58%	–
O=C(OCC(=O)N1CCOCC1)c1cc(-c2ccccc2)nc2ccccc12	inactive: -2.13%	–
COC(=O)c1oc2ccc(OC)cc2c1N	inactive: 9.07%	–
N#Cc1cccc(Nc2ncnc3c2cnn3-c2cccc(Cl)c2)c1	inconclusive: 16.3%	–
CC(C)NC(=O)c1cc(-c2ccc(Br)cc2)on1	–	inconclusive: 2.82 µM [falling, partial curve, poor fit]
O=C1c2cccc3cccc(c23)C(=O)N1CC1CCN(CC(O)COc2ccc3ccccc3c2)CC1 (stereo unspecified)	–	inconclusive: 35.5 µM [rising, single point]
CN(C)c1ccc(/C=C/c2ccc3ccccc3n2)cc1	–	inconclusive: 7.94 µM [falling, partial curve]
COc1cc2c(cc1OC)CN(C(=O)CN1C(=O)NC3(CCCCC3C)C1=O)CC2 (stereo unspecified)	inconclusive: 3.1%	–
CCOC(=O)C1CCN(C(=O)CN2C(=O)CSc3ccc(S(=O)(=O)N4CCOCC4)cc32)CC1	inactive: -0.275%	–
CC1CCN(c2c(NCC3CCC(C(=O)NCCCc4ccccc4)CC3)c(=O)c2=O)CC1 (stereo unspecified)	inconclusive: 1.89%	–
Cc1cccc2sc(N3CCN(C(=O)CS(=O)(=O)c4ccc(F)cc4)CC3)nc12	inactive: 4.4%	–
CCOC(=O)c1sc(NC(=O)C2CC(=O)N(c3ccc(OCC)cc3)C2)nc1C (stereo unspecified)	inconclusive: 1.38%	–
O=C(NC(=S)NC1CCCCC1)c1ccccc1[N+](=O)[O-]	inconclusive: -2.24%	–
CCC1=Nc2cc(C(=O)NCc3ccccc3Cl)ccc2Sc2ccc(C)cc21	–	inconclusive: 8.91 µM [falling, partial curve]
CCOC(=O)c1ccc(NC(=O)Cn2c(-c3nonc3N)nc3ccccc32)cc1	inactive: -0.797%	–
Nc1c(C(=O)NCCN2CCOCC2)c2nc3ccccc3nc2n1-c1ccc2c(c1)OCO2	inconclusive: 20%	–
Cc1ccc(C)c(-n2c(SCC(=O)O)nc3sc4c(c3c2=O)CCCC4)c1	inconclusive: -0.0069%	–
COc1ccc(OC)c(NC(=O)CSc2nc3n[nH]c(C)c3c(=N)n2-c2cccc(Cl)c2C)c1	inconclusive: -12.4%	–
CN1CCN(CC(O)(c2ccc(Cl)cc2)c2ccc(Cl)cc2)CC1	inconclusive: -13%	–
COc1ccccc1OCCCOc1ccc(C)cc1Br	inactive: 0.636%	–
NC(=O)c1c(NC(=O)c2ccccc2C(=O)O)sc2c1CCCC2	–	inconclusive: 35.5 µM [falling, single point]

In the list so far, eight have a halogen:
SMILES	activity change, negative = inhibition	Potency
Cc1c(NC(=O)COC(=O)Cc2ccc(Cl)cc2)c(=O)n(-c2ccccc2)n1C	inconclusive: -0.908%	–
N#Cc1cccc(Nc2ncnc3c2cnn3-c2cccc(Cl)c2)c1	inconclusive: 16.3%	–
CC(C)NC(=O)c1cc(-c2ccc(Br)cc2)on1	–	inconclusive: 2.82 µM [falling, partial curve, poor fit]
Cc1cccc2sc(N3CCN(C(=O)CS(=O)(=O)c4ccc(F)cc4)CC3)nc12	inactive: 4.4%	–
CCC1=Nc2cc(C(=O)NCc3ccccc3Cl)ccc2Sc2ccc(C)cc21	–	inconclusive: 8.91 µM [falling, partial curve]
COc1ccc(OC)c(NC(=O)CSc2nc3n[nH]c(C)c3c(=N)n2-c2cccc(Cl)c2C)c1	inconclusive: -12.4%	–
CN1CCN(CC(O)(c2ccc(Cl)cc2)c2ccc(Cl)cc2)CC1	inconclusive: -13%	–
COc1ccccc1OCCCOc1ccc(C)cc1Br	inactive: 0.636%	–

Further structures follow.

SMILES	activity change, negative = inhibition	Potency
CC1(C)Cc2ccccc2C(/C(=N\Nc2cccc(Cl)c2)C(N)=O)=N1	inconclusive: 0.649%	–
OC1(c2ccccc2F)CCN(Cc2nnc(-c3ccccc3)o2)CC1	inconclusive: -4.52%	–
COc1ccc(S(=O)(=O)N2CCC(n3cnc4cc(C(F)(F)F)ccc43)CC2)cc1	inconclusive: -0.965%	–
CC1=NOC(=O)/C1=C\c1ccc(-c2ccc(Br)cc2)o1	inconclusive: 19.8%	–
O=S1(=O)C=C(Sc2nc3ccccc3s2)c2ccccc21	–	inconclusive: 23.1 µM [rising, single point]
CC1(C)Cc2nc3sc4c(SCC(=O)NCc5ccccc5)ncnc4c3cc2CO1	–	inconclusive: 0.58 µM [falling, full curve, poor fit]
CC1(CC(=O)N/N=C/c2ccc(OCc3ccc(Cl)cc3Cl)cc2)OCCCO1	–	inconclusive: 2.51 µM [falling, full curve]
CCN(CC)c1ccc(NC(=O)c2cc3c(OC)cccc3[nH]2)cc1	inconclusive: 11.3%	–
S=c1[nH]ccn1-c1c(Cl)cccc1Cl	inactive: 3.09%	–
CCOc1c(S(=O)(=O)N2CCCC2)ccc(Cl)c1Cl	–	inconclusive: 8.2 µM [falling, partial curve]
Cc1c(N2C(=O)/C(=C3\C(=O)N(CC(=O)O)c4ccccc43)SC2=S)c(=O)n(-c2ccccc2)n1C	inconclusive: 8.86%	–
Cc1ccc(NC(=O)[C@H](NC(=O)[C@@H]2Cc3ccccc3CN2)c2ccccc2)c(C)c1	inconclusive: -11.6%	–
COc1ccc(CCNC(=O)c2cc3sc(Cl)cc3n2C)cc1OC	inconclusive: 19.9%	–
COC(=O)c1cccc(Nc2c(-c3ccc(OC)cc3)nc3nc[nH]n23)c1	–	inconclusive: 11.2 µM [falling, partial curve]
C/C(CC(=O)Nc1cc(Cl)ccc1C)=N\NC(=O)C(=O)N1CCCC1	inconclusive: -6.7%	–
O=C(/C=C/c1ccc(Cl)cc1)NC1CC2CCC1C2 (stereo unspecified)	–	inconclusive: 25.1 µM [falling, single point]
CCC(=O)N(Cc1cc2ccc(C)cc2[nH]c1=O)c1ccccc1OC	inconclusive: 0.0108%	–
COc1cc(OC)cc(-c2c(C#Cc3ccsc3)c3cc(-c4cc(OC)c(OC)c(OC)c4)ccc3n2C)c1	inactive: -5.47%	–
Cc1nc(SCC(=O)N2CCN(C(=O)c3cccs3)CC2)c2c(C)c(C)sc2n1	inconclusive: -5.17%	–
CCCCCN(C(=O)COC(=O)c1ccc(C)cc1)c1c(N)n(CCCC)c(=O)[nH]c1=O	inactive: -1.87%	–
O=C(Nc1ccc(-c2ccc3nncn3n2)cc1)C1CCCC1	inconclusive: 11.7%	–
Cc1cc[n+](-c2ccccc2)c2ccccc12	–	inconclusive: 35.5 µM [falling, single point]
CC1(C)NC(C)(C)/C(=C\c2cccs2)C(=O)C1=O	–	inconclusive: 35.5 µM [falling, single point]
COc1ccc(NC(=O)CN(C)S(=O)(=O)c2ccccc2)cc1	–	inconclusive: 20.6 µM [falling, partial curve, poor fit]
O=C(Nc1nnc(-c2ccc(F)cc2)o1)c1cccc([N+](=O)[O-])c1	–	inconclusive: 6.31 µM [falling, full curve]
CCc1ccc(NC(=O)CSc2nc3c(sc4ccccc43)c(=O)n2CCCOC)cc1	–	inconclusive: 3.55 µM [falling, partial curve, poor fit]

Random excerpt: two entries already listed.
SMILES	activity change, negative = inhibition	Potency
O=C(/C=C/c1ccc(Cl)cc1)NC1CC2CCC1C2 (stereo unspecified)	–	inconclusive: 25.1 µM [falling, single point]
CCC(=O)N(Cc1cc2ccc(C)cc2[nH]c1=O)c1ccccc1OC	inconclusive: 0.0108%	–

The list goes on.

SMILES	activity change, negative = inhibition	Potency
CCOC(=O)C1CCN(C(=O)CNC(=O)Cn2c(C)cc3ccccc3c2=O)CC1	inactive: 0.277%	–
O=C(NCCN1CCOCC1)c1ccc(/C=C2\Sc3ccccc3N(Cc3ccccc3F)C2=O)cc1	–	inconclusive: 17.8 µM [falling, partial curve]
O=C(Nc1ccccc1N1CCN(C(=O)c2ccccc2)CC1)c1cc(Br)ccc1Cl	inconclusive: 11.9%	–
Cc1ccc2nc(SC(C(=O)Nc3ccc(F)cc3)c3ccccc3)[nH]c2c1 (stereo unspecified)	inconclusive: 14.2%	–
CCn1cc(Cl)c(C(=O)Nc2cccc(C(F)(F)F)c2)n1	inconclusive: -0.51%	–
C=CCSc1nc2ccccc2c2nc(-c3ccccc3)nn12	inconclusive: 14.6%	–
CCc1ccc(-c2cc(C(=O)Nn3cnnc3)c3ccccc3n2)cc1	–	inconclusive: 29.1 µM [falling, single point]
O=C(O)c1ccccc1	inactive: 0.458%	–
Cc1ccc(NC2CCCN(C(=O)c3ccc4nccnc4c3)C2)cc1C (stereo unspecified)	inactive: -2.15%	–
CCN1N=C(c2ccccc2)Cn2c1nc1ccccc12	inconclusive: -14.2%	–
C#CCn1c(=NC(=O)c2ccco2)sc2cccc(Cl)c21	–	inconclusive: 6.31 µM [rising, full curve, poor fit]
Cc1noc(C)c1COc1ccc(C(=O)NNC(=O)c2ccccc2)cc1	–	inconclusive: 29.1 µM [falling, single point]
COc1cc(S(=O)(=O)N(C)C)ccc1Br	–	inconclusive: 23.1 µM [falling, single point]
CCc1nc(SCc2ccccc2)n[nH]1	inconclusive: -2.1%	–
O=C(Nc1ccc(S(=O)(=O)Nc2nccs2)cc1)c1cccc(F)c1	inconclusive: 6.31%	–
Cc1cc(=O)oc2cc(OCC(=O)OCC(=O)Nc3ccc(C(C)C)cc3)ccc12	inconclusive: 4.64%	–
COc1ccc(-c2[nH]ncc2CN(C)Cc2nonc2C)c(OC)c1	–	inconclusive: 3.98 µM [falling, partial curve, poor fit]
CC1(C)CC(=O)C=C(NCCN2CCNCC2)C1	inconclusive: 2.77%	–
O=C(NC(=S)NCC1CCCO1)c1ccc(Cl)cc1Cl (stereo unspecified)	inconclusive: 6.45%	–
COc1cc(CC(=O)NCc2ccc3c(c2)OCO3)cc(OC)c1OC	inconclusive: -0.735%	–
CCOc1ccc(/C(CCC(=O)O)=N/NC(=S)NCCc2ccccc2)cc1	–	inconclusive: 35.5 µM [falling, single point]
Cc1cc(/C=N/Nc2nc(N3CCOCC3)nc(N3CCOCC3)n2)c(C)n1-c1ccccc1	–	inconclusive: 2.51 µM [falling, partial curve, poor fit]
CC[C@]12c3[nH]c4cc(-c5ccco5)ccc4c3CCN1C(=O)[C@@H](CC(=O)NCCc1ccccn1)C[C@@H]2C(=O)N1CCN(C(=O)C2CC2)CC1	inconclusive: 4.68%	–
COc1ccc(OC)c(-n2nnnc2SCC(=O)Nc2ccc(C(=O)N3CCCCC3)cc2)c1	–	inconclusive: 8.2 µM [falling, partial curve, poor fit]
